For two substances, binding results are on record in paper PMC9039064.

Protein sequences, listed by entry. Tags and fused reporters are not part of them.
UniProt Q00987: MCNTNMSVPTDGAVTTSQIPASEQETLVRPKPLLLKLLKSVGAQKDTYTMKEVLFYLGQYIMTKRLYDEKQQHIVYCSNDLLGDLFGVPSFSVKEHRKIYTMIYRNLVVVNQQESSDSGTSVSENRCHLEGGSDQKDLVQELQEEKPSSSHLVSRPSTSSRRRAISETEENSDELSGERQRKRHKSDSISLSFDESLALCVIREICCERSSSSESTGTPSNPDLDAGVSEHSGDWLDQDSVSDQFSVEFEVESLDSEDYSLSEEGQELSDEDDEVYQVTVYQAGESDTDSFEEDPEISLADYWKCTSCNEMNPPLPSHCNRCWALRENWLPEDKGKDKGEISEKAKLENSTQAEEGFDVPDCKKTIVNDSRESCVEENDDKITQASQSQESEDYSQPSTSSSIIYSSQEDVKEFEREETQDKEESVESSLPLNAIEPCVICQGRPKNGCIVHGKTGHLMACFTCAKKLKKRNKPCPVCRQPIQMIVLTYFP
UniProt Q9Y566: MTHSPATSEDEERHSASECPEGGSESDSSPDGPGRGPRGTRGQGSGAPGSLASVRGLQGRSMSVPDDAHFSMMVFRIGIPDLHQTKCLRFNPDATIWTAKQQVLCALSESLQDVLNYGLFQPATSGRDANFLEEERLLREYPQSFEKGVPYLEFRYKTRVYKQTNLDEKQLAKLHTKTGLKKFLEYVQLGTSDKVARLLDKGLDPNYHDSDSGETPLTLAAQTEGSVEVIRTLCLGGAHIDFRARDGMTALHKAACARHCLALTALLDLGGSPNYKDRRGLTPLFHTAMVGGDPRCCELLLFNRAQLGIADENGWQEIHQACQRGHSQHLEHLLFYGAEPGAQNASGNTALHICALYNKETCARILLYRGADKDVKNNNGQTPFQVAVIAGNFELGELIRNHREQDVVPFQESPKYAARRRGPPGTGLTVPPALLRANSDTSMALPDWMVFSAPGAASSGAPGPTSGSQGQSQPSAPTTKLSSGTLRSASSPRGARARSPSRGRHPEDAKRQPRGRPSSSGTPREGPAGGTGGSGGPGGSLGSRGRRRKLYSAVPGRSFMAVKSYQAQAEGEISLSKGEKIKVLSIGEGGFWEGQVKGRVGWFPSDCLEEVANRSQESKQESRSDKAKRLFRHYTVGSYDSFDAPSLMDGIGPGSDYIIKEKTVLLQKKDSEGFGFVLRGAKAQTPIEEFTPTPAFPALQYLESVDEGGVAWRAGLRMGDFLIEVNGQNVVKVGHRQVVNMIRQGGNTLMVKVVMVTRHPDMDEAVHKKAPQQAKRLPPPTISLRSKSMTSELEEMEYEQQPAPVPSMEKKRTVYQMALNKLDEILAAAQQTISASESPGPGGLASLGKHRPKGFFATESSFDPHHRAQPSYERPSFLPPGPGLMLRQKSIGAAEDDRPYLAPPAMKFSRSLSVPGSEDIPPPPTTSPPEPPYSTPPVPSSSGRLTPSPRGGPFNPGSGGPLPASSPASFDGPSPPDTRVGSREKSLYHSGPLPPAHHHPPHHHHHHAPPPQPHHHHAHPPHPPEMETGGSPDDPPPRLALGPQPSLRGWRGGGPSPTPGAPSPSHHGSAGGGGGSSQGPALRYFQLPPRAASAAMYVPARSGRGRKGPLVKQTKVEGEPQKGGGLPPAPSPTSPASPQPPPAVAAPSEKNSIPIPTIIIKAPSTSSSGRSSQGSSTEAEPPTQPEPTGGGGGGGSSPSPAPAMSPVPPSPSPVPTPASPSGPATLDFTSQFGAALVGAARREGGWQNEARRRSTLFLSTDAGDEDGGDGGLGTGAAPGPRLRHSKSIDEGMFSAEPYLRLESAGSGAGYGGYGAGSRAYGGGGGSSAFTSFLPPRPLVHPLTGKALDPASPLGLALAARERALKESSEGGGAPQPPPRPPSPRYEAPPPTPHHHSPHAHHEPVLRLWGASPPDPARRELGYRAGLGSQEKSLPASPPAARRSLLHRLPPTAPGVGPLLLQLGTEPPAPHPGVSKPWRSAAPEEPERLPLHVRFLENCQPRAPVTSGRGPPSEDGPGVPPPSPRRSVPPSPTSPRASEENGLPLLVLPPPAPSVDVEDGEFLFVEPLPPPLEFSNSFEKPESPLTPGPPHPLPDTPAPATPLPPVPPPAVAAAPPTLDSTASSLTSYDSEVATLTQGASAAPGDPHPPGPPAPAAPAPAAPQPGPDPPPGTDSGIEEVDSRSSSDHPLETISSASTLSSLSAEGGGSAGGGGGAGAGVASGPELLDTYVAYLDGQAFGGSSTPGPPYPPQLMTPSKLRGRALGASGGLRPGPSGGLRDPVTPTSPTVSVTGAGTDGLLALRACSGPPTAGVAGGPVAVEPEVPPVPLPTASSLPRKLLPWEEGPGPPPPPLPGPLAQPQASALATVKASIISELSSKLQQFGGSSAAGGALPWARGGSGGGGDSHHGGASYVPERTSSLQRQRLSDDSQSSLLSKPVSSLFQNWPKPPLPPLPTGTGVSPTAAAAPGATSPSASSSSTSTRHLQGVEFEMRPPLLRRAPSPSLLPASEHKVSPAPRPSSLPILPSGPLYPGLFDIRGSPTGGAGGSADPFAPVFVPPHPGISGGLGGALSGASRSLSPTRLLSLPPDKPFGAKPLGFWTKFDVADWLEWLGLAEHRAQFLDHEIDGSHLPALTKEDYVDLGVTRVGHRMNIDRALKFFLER

These are yes or no findings as the source states them, for the method shown. Binding seen in cells or lysates may run through a third protein. A yes stands for co-enrichment or nearness to the bait. Other partners may have been found.

The target of the assay is T1, KL (Klotho), bait of the immunoprecipitation with mass spectrometry (UniProt Q9UEF7).
T1 sequence: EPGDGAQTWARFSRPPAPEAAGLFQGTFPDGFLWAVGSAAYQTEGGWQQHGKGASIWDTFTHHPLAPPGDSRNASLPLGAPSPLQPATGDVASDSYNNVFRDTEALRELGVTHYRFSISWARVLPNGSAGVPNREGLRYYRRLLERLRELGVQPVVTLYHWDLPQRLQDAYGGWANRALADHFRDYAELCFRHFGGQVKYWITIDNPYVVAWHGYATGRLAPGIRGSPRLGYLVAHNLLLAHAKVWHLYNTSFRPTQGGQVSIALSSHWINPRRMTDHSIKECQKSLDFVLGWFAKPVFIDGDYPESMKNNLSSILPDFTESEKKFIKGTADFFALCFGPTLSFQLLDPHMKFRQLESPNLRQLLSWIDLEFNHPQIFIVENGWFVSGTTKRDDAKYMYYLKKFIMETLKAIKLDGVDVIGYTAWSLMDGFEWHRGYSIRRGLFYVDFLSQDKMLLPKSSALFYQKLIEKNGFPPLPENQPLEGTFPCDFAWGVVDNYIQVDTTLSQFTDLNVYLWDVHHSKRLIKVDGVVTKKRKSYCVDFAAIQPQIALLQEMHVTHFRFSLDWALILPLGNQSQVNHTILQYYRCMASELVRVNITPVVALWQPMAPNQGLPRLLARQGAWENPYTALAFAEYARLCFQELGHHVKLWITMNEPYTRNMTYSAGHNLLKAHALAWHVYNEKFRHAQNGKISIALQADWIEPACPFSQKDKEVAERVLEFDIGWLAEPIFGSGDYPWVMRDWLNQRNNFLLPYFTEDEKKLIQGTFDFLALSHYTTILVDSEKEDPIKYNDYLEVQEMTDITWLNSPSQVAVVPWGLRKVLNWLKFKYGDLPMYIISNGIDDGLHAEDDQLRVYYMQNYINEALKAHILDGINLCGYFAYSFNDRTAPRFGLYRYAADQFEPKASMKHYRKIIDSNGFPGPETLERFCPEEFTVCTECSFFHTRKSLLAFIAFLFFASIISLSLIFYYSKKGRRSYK
The assay can be described thus: affinity purification with mass spectrometry; immunoprecipitation of KL and mass spectrometry detection; cells not given; the paper calls it a previous IP-MS result and points to ref. 24.

On to “MDM2 found in the KL immunoprecipitate (IP-MS) (from UniProt Q00987 1-491)”, for which the binding result was “binds”.

With “SHANK1 found in the KL immunoprecipitate (IP-MS) (from UniProt Q9Y566 1-2161)”, the binding result is given as “binds”.
